{
  "sequences": {"note": "Sequences of proteins named here, by UniProt entry; tags and fusion partners are left off.", "UniProt Q6ZNE5": "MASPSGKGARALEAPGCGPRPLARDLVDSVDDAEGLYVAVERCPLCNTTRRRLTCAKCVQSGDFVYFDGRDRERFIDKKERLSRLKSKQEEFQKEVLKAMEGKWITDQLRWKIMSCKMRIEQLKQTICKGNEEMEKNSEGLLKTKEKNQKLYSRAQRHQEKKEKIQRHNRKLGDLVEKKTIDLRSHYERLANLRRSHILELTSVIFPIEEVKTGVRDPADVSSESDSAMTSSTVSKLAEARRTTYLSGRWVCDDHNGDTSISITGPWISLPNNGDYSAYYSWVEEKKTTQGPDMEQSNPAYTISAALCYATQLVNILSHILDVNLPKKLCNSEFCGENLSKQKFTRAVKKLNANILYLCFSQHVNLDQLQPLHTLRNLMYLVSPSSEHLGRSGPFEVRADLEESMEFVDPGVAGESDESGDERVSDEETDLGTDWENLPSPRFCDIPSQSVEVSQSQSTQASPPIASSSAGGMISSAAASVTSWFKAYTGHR", "UniProt P56962": "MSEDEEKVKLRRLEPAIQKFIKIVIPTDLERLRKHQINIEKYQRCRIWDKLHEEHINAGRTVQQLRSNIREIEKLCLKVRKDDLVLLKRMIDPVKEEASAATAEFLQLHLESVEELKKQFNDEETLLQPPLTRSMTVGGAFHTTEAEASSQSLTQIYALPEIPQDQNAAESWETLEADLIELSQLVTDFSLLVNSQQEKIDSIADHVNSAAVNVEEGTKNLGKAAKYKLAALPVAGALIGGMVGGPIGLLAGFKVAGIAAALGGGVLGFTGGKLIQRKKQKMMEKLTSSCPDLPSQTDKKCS"},
  "source": "paper PMC7202210",
  "molecules": {"B1": {"name": "CbpFR6-FLAG (protein, UniProt Q8DR52 28-338)", "chain": "NTTGGRFVDKDNRKYYVKDDHKAIYWHKIDGKTYYFGDIGEMVVGWQYLEIPGTGYRDNLFDNQPVNEIGLQEKWYYFGQDGALLEQTDKQVLEAKTSENTGKVYGEQYPLSAEKRTYYFDNNYAVKTGWIYEDGNWYYLNKLGNFGDDSYNPLPIGEVAKGWTQDFHVTIDIDRSKPAPWYYLDASGKMLTDWQKVNGKWYYFGSSGSMATGWKYVRGKWYYLDNKNGDMKTGWQYLGNKWYYLRSSGAMVTGWYQDGLTWYYLNAGNGDMKTGWFQVNGKWYYAYSSGALAVNTTVDGYSVNYNGEWVQ"}},
  "key": {"[1]": {"target": "Nanoluc-Atg14 (human) (UniProt Q6ZNE5)", "assay": "FRET or BRET"}, "[2]": {"target": "T1, GST-CbpFR6 (Streptococcus pneumoniae R6) (UniProt Q8DR52)", "T1 sequence": "B1 chain", "assay": "pull-down"}, "[3]": {"target": "T1, GST-CbpFR6 (Streptococcus pneumoniae R6)", "assay": "pull-down; only the target purified"}, "[4]": {"target": "HA-Atg14 (stably expressed in MEFs) (human) (UniProt Q6ZNE5)", "assay": "co-IP"}},
  "note": "No constants are given. Whether binding was seen depends on the method and setting. In cells and extracts the contact can be indirect. Some results given as binding are weak or reduced against the parent protein; the word gives no strength. For some of these results: Sequences can lack the tags named with a protein.",
  "data": [
    {"molecule": "HaloTag-Stx17 (from UniProt P56962 1-302)", "values": [
      {"measurement": "binding", "setting": "[1]", "result": "binds"}
    ]},
    {"molecule": "recombinant 3Myc-Atg14 (expressed in E. coli) (from UniProt Q6ZNE5 1-492)", "values": [
      {"measurement": "binding", "setting": "[2]", "result": "binds"}
    ]},
    {"molecule": "GFP-Atg14 full length (FL) (from UniProt Q6ZNE5 1-492)", "values": [
      {"measurement": "binding", "setting": "[3]", "result": "binds"}
    ]},
    {"molecule": "B1", "values": [
      {"measurement": "binding", "setting": "[4]", "result": "binds"}
    ]}
  ]
}
